# From article doi:10.1101/182626
# These are yes or no findings as the source states them, for the method shown. In cells and extracts the contact can be indirect. Some binding calls cover weakened binding; strength is not graded here. Tags and fused reporters may be left off the sequences shown.
# B1: mCherry-Stx17[S2A] phosphonull mutant, P56962 1-302 (protein)
# chain: MAEDEEKVKLRRLEPAIQKFIKIVIPTDLERLRKHQINIEKYQRCRIWDKLHEEHINAGRTVQQLRSNIREIEKLCLKVRKDDLVLLKRMIDPVKEEASAATAEFLQLHLESVEELKKQFNDEETLLQPPLTRSMTVGGAFHTTEAEASSQSLTQIYALPEIPQDQNAAESWETLEADLIELSQLVTDFSLLVNSQQEKIDSIADHVNSAAVNVEEGTKNLGKAAKYKLAALPVAGALIGGMVGGPIGLLAGFKVAGIAAALGGGVLGFTGGKLIQRKKQKMMEKLTSSCPDLPSQTDKKCS
# Experiments:
# [1] = biological target: T1, EGFP-VPS33A (UniProt Q96AX1); experiment: FRET or BRET
# T1 sequence: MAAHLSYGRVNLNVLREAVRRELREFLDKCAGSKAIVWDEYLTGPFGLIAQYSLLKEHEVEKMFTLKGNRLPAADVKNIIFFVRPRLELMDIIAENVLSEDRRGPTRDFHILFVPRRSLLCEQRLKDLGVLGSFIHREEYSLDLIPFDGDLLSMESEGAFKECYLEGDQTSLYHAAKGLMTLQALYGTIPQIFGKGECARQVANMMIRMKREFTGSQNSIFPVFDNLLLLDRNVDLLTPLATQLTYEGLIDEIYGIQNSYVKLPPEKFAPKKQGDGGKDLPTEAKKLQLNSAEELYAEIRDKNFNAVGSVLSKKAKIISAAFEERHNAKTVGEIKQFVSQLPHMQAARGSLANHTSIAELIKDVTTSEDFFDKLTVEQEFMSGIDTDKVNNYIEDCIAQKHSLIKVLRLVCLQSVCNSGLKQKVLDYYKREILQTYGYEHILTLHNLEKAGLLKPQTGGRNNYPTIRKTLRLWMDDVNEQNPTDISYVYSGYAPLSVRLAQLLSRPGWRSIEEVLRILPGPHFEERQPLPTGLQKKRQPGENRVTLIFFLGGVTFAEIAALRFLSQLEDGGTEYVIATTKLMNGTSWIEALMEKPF
# [2] = biological target: T2, EGFP-VPS33A, Q96AX1; experiment: FRET or BRET; details: remark: other sources report otherwise
# T2 chain: T1 sequence
Molecule,binding [1],binding [2]
mCherry-Stx17[S2E] phosphomimetic mutant (from UniProt P56962 1-302),binds,
mCherry-Stx17[ED3-6K] charge mutant (from UniProt P56962 1-302),no binding,
B1,,no binding
